Reference: patent US20140031259A1
These are yes or no findings as the source states them, for the method shown. Some binding calls cover weakened binding; strength is not graded here.

Sequences of proteins named here, by UniProt entry; tags and fusion partners are left off. A change or cut given only in a name is not applied to a line headed by its entry. Residues count along the entry.
UniProt P04386: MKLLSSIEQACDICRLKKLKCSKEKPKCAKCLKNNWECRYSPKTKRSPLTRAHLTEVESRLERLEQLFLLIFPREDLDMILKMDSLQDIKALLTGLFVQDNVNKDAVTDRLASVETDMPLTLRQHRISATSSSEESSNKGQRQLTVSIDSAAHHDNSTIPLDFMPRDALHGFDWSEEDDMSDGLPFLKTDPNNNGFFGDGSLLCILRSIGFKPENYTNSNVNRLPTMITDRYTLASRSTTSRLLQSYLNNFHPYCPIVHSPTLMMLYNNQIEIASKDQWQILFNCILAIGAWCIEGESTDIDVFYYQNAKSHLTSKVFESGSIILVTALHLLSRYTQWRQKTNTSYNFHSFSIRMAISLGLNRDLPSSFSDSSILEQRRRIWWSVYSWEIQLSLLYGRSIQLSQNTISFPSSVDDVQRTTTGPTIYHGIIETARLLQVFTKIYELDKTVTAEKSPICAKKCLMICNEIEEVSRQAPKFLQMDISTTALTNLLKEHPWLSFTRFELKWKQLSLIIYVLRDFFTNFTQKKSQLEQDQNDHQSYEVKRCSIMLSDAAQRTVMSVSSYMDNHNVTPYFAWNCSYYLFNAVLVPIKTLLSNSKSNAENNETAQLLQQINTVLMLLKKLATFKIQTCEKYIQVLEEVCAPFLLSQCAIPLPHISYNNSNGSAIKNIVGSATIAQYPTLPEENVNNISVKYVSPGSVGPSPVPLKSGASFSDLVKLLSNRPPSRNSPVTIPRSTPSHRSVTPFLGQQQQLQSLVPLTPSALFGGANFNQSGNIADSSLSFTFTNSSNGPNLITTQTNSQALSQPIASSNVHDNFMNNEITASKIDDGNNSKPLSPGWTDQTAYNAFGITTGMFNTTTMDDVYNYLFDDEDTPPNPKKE
UniProt P31749, residues 5-108: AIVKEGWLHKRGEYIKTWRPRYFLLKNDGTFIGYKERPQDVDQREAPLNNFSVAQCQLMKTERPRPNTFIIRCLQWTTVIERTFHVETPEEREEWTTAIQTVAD

Biological target: AKT1 kinase domain (WT) fused to the Gal4 DNA binding domain (UniProt P04386)
Assay: mammalian 2-hybrid, luciferase reporter; reference pair

AKT1 PH domain (WT) fused to the VP16 activation domain (from UniProt P31749 5-108)
binding: binds
